Results reported in PubChem BioAssay AID1487 (National Center for Advancing Translational Sciences (NCATS), 2009).
Several values for one entry are separate records, joined by “and”; a condition that tells them apart may be missing. Identical values can stand only once. The list shows a part of the results. Further columns of the screen follow, without active or inactive calls. Most of these compounds were active or inconclusive in the main read-out, so they are no random draw. The note in brackets gives the kind of curve behind each potency; many fits are weak.

Experiment: qHTS Assay for Modulators of Lamin A Splicing
Details: HeLa LMNA splicing GFP/RFP minigene ratio, 48 h
Summary of the method: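 S3 HeLa stable clones carrying a lamin A-EGFP splicing minigene plus DsRed2 were seeded at 600 cells/well in Opti-MEM with 2% FBS, pin-dosed and incubated 48 h at 37°C. Acumen cytometry (488 nm) gave the GFP/RFP total-intensity ratio.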

[1] = measured here: RFP viability control channel
[2] = measured here: GFP splicing reporter channel

SMILES	AC50 [1]	AC50 [2]
Cc1ccc2[nH]c(CSc3nnc(COc4ccccc4C)n3C)cc(=O)c2c1	0.0251 µM [falling, full curve, poor fit]	–
Cc1cccc(NC(=O)c2ccc(N3CCCCC3)c([N+](=O)[O-])c2)n1	10 µM [rising, partial curve]	–
Cc1ccc(-n2[nH]c(C)c(/C=N/NC(=O)c3cccc([N+](=O)[O-])c3)c2=O)cc1C	3.55 µM [rising, full curve]	–
Cc1cc(OCC(=O)Nc2ccncc2)ccc1Br	11.2 µM [rising, partial curve]	–
CCc1ccc(Nc2nnc(SCC(=O)NCCN3C(=O)CSC3=O)s2)cc1	–	35.5 µM [rising, single point]
O=C(O)Cn1cc(/C=C2\SC(=O)N(c3ccccc3)C2=O)c2ccccc21	0.158 µM [falling, full curve, poor fit]	0.891 µM [falling, partial curve, poor fit]
Cc1ccccc1OCC(O)CN(Cc1ccccc1O)C1CCCCC1 (centres undefined)	–	0.0708 µM [falling, full curve, poor fit]
O=C1c2cnc3nc(SCc4ccccc4)nn3c2CC2c3ccccc3CCN12 (centres undefined)	3.98 µM [falling, single point]	–
CN(C)CCNc1ncnc2c1sc1nc(N3CCOCC3)c3c(c12)CC(C)(C)SC3	35.5 µM [falling, single point]	15.8 µM [falling, single point]
COc1cc(S(=O)(=O)Nc2cc(C)cc(C)c2)ccc1F	25.1 µM [rising, partial curve]	14.1 µM [rising, partial curve]
CCOc1ccc(Sc2cc(C(=O)NCCc3ccccc3)c3ccccc3n2)cc1	3.98 µM [rising, single point]	2.24 µM [rising, partial curve]
S=C(NCCc1ccccc1)NCc1ccccc1Cl	35.5 µM [rising, single point]	28.2 µM [rising, single point]
CCOc1ccc(CN2CCN(Cc3cccc4c3OCO4)CC2CCO)cc1 (centres undefined)	3.55 µM [falling, full curve, poor fit]	3.55 µM [falling, full curve, poor fit]
COc1ccc(C(c2c(O)ccc3ccccc23)N2CCOCC2)c(OC)c1 (centres undefined)	25.1 µM [falling, partial curve, poor fit]	–
CCOc1ccc(NC(=O)CSC2=Nc3ccccc3C3=NC(CC(=O)NCc4ccco4)C(=O)N23)cc1 (centres undefined)	0.0891 µM [falling, full curve]	0.0562 µM [falling, full curve, poor fit]
CCN(CC)c1ccc(/C=C2\NC(=O)NC2=O)cc1	8.91 µM [falling, partial curve, poor fit]	3.16 µM [falling, full curve]
CC(C)(C)C(=O)NC(=S)Nc1sc2c(c1C(N)=O)CCC2	0.0794 µM [falling, full curve, poor fit]	–
CN(C)CCCN1C(=O)c2cccc3c(Br)ccc(c23)C1=O	35.5 µM [falling, single point]	25.1 µM [falling, single point]
CC(C)c1ccc(NC(=O)c2cc(S(=O)(=O)NCc3ccccc3Cl)ccc2F)cc1	20 µM [falling, partial curve, poor fit]	10 µM [falling, partial curve, poor fit]
O=C(CCN1C(=O)c2ccc([N+](=O)[O-])cc2C1=O)Nc1nccs1	0.02 µM [falling, full curve, poor fit]	–
Cc1noc(C)c1S(=O)(=O)N1CCC(C(=O)N2CCN(c3ccc(Cl)cc3)CC2)CC1	35.5 µM [rising, single point]	–
COC(=O)c1c(CCl)noc1C(=O)NC(C)C	35.5 µM [rising, single point]	–
Cc1ccc(S(=O)(=O)N2CCN(c3ccc(C(F)(F)F)cc3[N+](=O)[O-])CC2)cc1	7.08 µM [rising, partial curve]	–
Cc1nnc(C)n1/N=C/c1ccc(C(C)C)cc1	–	22.4 µM [rising, single point]
CCOC(=O)c1ccc(NC(=S)N(CCCN2CCN(CC)CC2)Cc2ccco2)cc1	–	0.0794 µM [falling, full curve, poor fit]
O=[N+]([O-])c1cc(C(F)(F)F)ccc1NCCNC(=S)Nc1ccc(Cl)cc1	17.8 µM [falling, single point]	28.2 µM [falling, single point]
C=CCn1c(SCCCc2ccccc2)nc2c1c(=O)[nH]c(=O)n2C	35.5 µM [rising, single point]	31.6 µM [rising, single point]

SMILES	AC50 [1]	AC50 [2]
CC1COC(C)(CC(=O)NN2C(=O)c3ccccc3C2=O)O1 (centres undefined)	1.26 µM [rising, single point]	–
CC(=O)c1cc2c(cc1NC(=O)CSc1nc3ccc(C)cc3[nH]1)OCO2	0.0224 µM [rising, full curve, poor fit]	–
Clc1ccc2nc(SCc3nnc(-c4ccccc4)o3)[nH]c2c1	12.6 µM [rising, partial curve]	11.2 µM [rising, partial curve, poor fit]
COC(=O)C1=C(C)N(Cc2ccco2)C(=O)/C1=C\c1ccc([N+](=O)[O-])cc1	20 µM [falling, partial curve, poor fit]	11.2 µM [falling, single point]
O=C(NCc1ccccn1)c1cc(-c2ccc(Cl)cc2)nc2ccccc12	20 µM [rising, single point]	35.5 µM [rising, single point]
O=C(N/N=C/c1cc(Br)cs1)c1ccccc1[N+](=O)[O-]	12.6 µM [rising, partial curve]	–
COc1cc(C=C(c2nc3ccccc3s2)c2nc3ccccc3s2)ccc1O	15.8 µM [rising, partial curve]	–
CCn1c(COc2cc(C)cc(C)c2)nnc1SCC(=O)N1CCN(c2ccccc2)CC1	10 µM [rising, partial curve, poor fit]	–
COc1cc(C(=O)OCC(=O)Nc2sccc2C(N)=O)cc(OC)c1OC	3.16 µM [rising, full curve]	–
CCN1CCN(C(c2ccc(F)cc2)c2c(O)cc(C)n(CCOC)c2=O)CC1 (centres undefined)	2.82 µM [rising, single point]	0.562 µM [rising, full curve, poor fit]
CCC(=O)Oc1c(S(=O)(=O)c2ccc(C)cc2)c(C)nn1C(C)(C)C	22.4 µM [rising, single point]	15.8 µM [rising, single point]
CC(C)(C)NC(=O)CSc1nc2scc(-c3ccccc3)c2c(=O)[nH]1	–	35.5 µM [rising, single point]
Cc1cc(C(=O)CSc2nc(N)cc(=O)[nH]2)c(C)n1CCc1ccc(F)cc1	6.31 µM [rising, full curve]	2.82 µM [rising, partial curve]
CNC(=O)c1cc2c(=O)n3cc(C)ccc3nc2n(Cc2ccco2)c1=N	10 µM [rising, partial curve]	–
Cc1ccc(S(=O)(=O)N[C@@H](C)C(=O)N2CCC(C(=O)N3CCC[C@H]3C(=O)O)CC2)cc1	–	2.24 µM [rising, partial curve, poor fit]
COc1ccc(/C=C/C(=O)NC2CCCCCCC2)cc1S(=O)(=O)N1CCOCC1	12.6 µM [rising, single point]	–
Cc1ccc(/C=N/NC(=O)C2=NNC(c3ccccc3)(c3ccccc3)C2)c(O)c1	17.8 µM [rising, partial curve]	–
COc1ccc(C2=CC(c3ccc(OC)c(OC)c3)NC(=S)N2)cc1 (centres undefined)	–	0.708 µM [rising, full curve, poor fit]
CN(C)c1ccc(CNS(=O)(=O)c2ccc3[nH]c4c(c3c2)CCCCC4)cc1	–	4.47 µM [falling, full curve]
COc1ccc(Nc2nnc(SCC(=O)c3cc(C)n(CC4CCCO4)c3C)s2)cc1 (centres undefined)	5.62 µM [falling, single point]	31.6 µM [falling, single point]
COc1ccc(C(=O)/C=C/c2ccc(OC)c(COc3ccc(F)cc3)c2)cc1	–	2.24 µM [rising, partial curve]
Cc1cccc(Nc2nnc(-c3ccc(N4CCOCC4)c([N+](=O)[O-])c3)c3ccccc23)c1	31.6 µM [rising, single point]	–
Clc1ccccc1C(c1ccccc1)(c1ccccc1)n1ccnc1	4.47 nM [rising, full curve, poor fit] and 25.1 µM [falling, partial curve]	3.16 µM [falling, partial curve] and 17.8 µM [falling, partial curve, poor fit]
NC(=O)NO	–	10 µM [falling, partial curve]
CO/N=C1\CN(c2nc3c(cc2F)c(=O)c(C(=O)O)cn3C2CC2)CC1CN (centres undefined)	0.631 µM [rising, single point]	11.2 µM [falling, partial curve]
NNC(=O)CN1C(c2ccccc2Br)=Nc2ccc(Br)cc2C1c1ccccc1 (centres undefined)	15.8 µM [rising, partial curve]	–
